Measurements published in publication PMC7143940 (Molecules, 2020).
Some peptides are written in HELM: one residue between dots, names in brackets for other building blocks, links after the first $.

Assay: general procedure: Fmoc solid-phase peptide synthesis; Fmoc-Cys(Trt)-NovaSynTGT Resin (0.2 meq/g), for peptide 1; HBTU / N,N-diisopropylethylamine
Details: whole synthesis, scale of the general procedure ca. 500 mg resin, 1 mmol (as printed, peptide 1)

PEPTIDE1{K.W.C.E.C}$$$$V2.0
final HPLC purity: 99.38%
